Test results taken from paper doi:10.1101/2023.05.08.539811.
No constants are given. Whether binding was seen depends on the method and setting.

Target: full-length human GDAP1 (ganglioside-induced differentiation-associated protein 1) (human) (UniProt Q8TB36)
Experiment: SEC-SAXS

binding: no binding
B1: full-length human GDAP1 (ganglioside-induced differentiation-associated protein 1) (protein, UniProt Q8TB36 1-358)
chain: MAERQEEQRGSPPLRAEGKADAEVKLILYHWTHSFSSQKVRLVIAEKALKCEEHDVSLPLSEHNEPWFMRLNSTGEVPVLIHGENIICEATQIIDYLEQTFLDERTPRLMPDKESMYYPRVQHYRELLDSLPMDAYTHGCILHPELTVDSMIPAYATTRIRSQIGNTESELKKLAEENPDLQEAYIAKQKRLKSKLLDHDNVKYLKKILDELEKVLDQVETELQRRNEETPEEGQQPWLCGESFTLADVSLAVTLHRLKFLGFARRNWGNGKRPNLETYYERVLKRKTFNKVLGHVNNILISAVLPTAFRVAKKRAPKVLGTTLVVGLLAGVGYFAFMLFRKRLGSMILAFRPRPNYF
